Test results reported in article PMC3630203.
No constants are given. Whether binding was seen depends on the method and setting. Some results given as binding are weak or reduced against the parent protein; the word gives no strength.

Sequences of proteins named here, by UniProt entry; tags and fusion partners are left off. A change or cut given only in a name is not applied to a line headed by its entry.
UniProt P04003: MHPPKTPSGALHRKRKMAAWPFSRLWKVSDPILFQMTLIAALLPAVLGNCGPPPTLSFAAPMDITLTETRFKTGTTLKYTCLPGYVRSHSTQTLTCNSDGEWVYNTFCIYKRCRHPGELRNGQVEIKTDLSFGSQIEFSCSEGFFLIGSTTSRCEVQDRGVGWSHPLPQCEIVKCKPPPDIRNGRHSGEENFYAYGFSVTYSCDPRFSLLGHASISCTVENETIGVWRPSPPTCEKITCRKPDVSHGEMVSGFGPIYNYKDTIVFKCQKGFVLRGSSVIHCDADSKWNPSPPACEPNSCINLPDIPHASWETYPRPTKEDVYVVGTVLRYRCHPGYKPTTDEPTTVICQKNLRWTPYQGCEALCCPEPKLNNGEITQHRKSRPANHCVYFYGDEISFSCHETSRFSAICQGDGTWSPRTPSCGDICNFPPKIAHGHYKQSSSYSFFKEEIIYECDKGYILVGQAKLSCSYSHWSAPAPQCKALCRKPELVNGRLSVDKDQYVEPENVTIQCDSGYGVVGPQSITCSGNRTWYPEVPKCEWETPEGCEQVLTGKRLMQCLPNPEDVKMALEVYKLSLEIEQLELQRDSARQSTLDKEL
UniProt P20851: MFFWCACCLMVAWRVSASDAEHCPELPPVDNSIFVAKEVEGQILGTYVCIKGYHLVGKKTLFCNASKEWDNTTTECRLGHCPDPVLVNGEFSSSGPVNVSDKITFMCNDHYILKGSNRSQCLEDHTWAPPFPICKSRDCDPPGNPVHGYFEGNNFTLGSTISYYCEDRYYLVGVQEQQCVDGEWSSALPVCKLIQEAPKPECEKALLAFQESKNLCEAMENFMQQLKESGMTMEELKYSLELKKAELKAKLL

Biological target: T1, purified recombinant M4 protein (Streptococcus pyogenes) (UniProt P13050)
T1 sequence: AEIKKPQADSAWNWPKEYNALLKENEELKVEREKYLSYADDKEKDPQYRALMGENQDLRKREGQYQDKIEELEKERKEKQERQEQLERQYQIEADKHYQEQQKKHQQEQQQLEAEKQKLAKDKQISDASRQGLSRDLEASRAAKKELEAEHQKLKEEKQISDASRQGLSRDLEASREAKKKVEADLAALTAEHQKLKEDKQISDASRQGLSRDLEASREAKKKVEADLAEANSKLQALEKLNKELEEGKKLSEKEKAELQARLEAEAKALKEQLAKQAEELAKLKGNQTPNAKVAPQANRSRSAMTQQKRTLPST
Test: solid-phase binding test in microtiter wells (antibody and radiolabeled protein G detection); both purified

human C4BP (from UniProt P04003;P20851) (complex)
binding: binds
